Values joined by “and” are separate entries in the source; they are usually repeats but may differ in a detail not shown here. Equal values may be shown once. Where a name gives a salt, the structure may show the parent alone. The list shows a part of the results. Single values are uncertain here, since repeats match poorly.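 HEK293T cells were given each compound shortly before transfection with a reporter in which red mCherry is followed by the SARS-CoV-2 frameshift element and then GFP in the −1 frame, so GFP appears only after frameshifting.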

This assay has as its system HEK293T. In words: percent viability (nuclei count) relative to control; higher = more viable cells. To be noted: 10 µM; 24 h.
For the compound `CN1CCCCC1CCN1c2ccccc2Sc2ccc([S+](C)[O-])cc21` (stereo not given) [mesoridazine], the percent viability stood at 211%. The same measure for `NS(=O)(=O)c1cc2c(cc1Cl)NC(C(Cl)Cl)NS2(=O)=O` (stereo not given) [trichlormethiazide]: 107% and 261%; for `O=C1CN(/N=C/c2ccc(-c3ccc(Cl)c(Cl)c3)o2)C(=O)N1` [clodanolene]: 301%; for `C=CS(=O)(=O)O` [apolate]: 109%. In the case of `O=C(CCn1cnc2c(=O)[nH]cnc21)Nc1ccc(C(=O)O)cc1` [leteprinim], the percent viability came to 57.6%. For `CS(=O)(=O)c1ccc([C@@H](O)[C@@H](CO)NC(=O)C(Cl)Cl)cc1` [thiamphenicol] the value was 278%; for `CCN(CC)CCOc1ccc2c(c1)C(=O)c1cc(OCCN(CC)CC)ccc1-2` [tilorone], 204%; for `COc1cc([C@@H]2c3cc4c(cc3[C@@H](O[C@@H]3O[C@@H]5CO[C@@H](C)O[C@H]5[C@H](O)[C@H]3O)[C@H]3COC(=O)[C@H]23)OCO4)cc(OC)c1O` [etoposide], 101%. In the case of `Nc1c(Br)cc(Br)cc1CN[C@H]1CC[C@H](O)CC1` [ambroxol], the percent viability is 249% and 150%.

As to `CN1CCC(=C2c3ccccc3CCc3cccnc32)CC1`, the percent viability came to 198%. With `COCC(=O)Nc1cc(Sc2ccccc2)ccc1N=C(NC(=O)OC)NC(=O)OC` [febantel], the percent viability came to 226%. For `Cc1cc2c(cc1CC(=O)c1sccc1S(=O)(=O)Nc1onc(C)c1Cl)OCO2` [Sitaxentan] the value was 253%; for `CC(C)C(=O)c1c(C(C)C)nn2ccccc12` [ibudilast], 283%. For `COc1ccc(O)cc1` [mequinol] the value was 179%.

As to `C[N+](C)(C)CC(=O)O`, the percent viability was found to be 414%. For `CC1(C)O[C@@H]2C[C@H]3[C@@H]4CCC5=CC(=O)C=C[C@]5(C)[C@@]4(F)[C@@H](O)C[C@]3(C)[C@]2(C(=O)CO)O1` the value was 140%; for `Nc1c2c(nc3ccccc13)CCCC2O` (stereo not given) [velnacrine], 342%; for `CN1C(=O)C(N2CCCCC2)S/C1=C\C(=O)O` (stereo not given) [ozolinone], 175%. For `CC1(C)S[C@@H]2[C@H](NC(=O)[C@H](C(=O)O)c3ccsc3)C(=O)N2[C@H]1C(=O)O` the value was 399%; for `CN(C)NC(=O)c1ccc(Cl)c(S(N)(=O)=O)c1` [alipamide], 83.3%. The same measure for `c1ccc(-c2cc(CCC3CCNCC3)c3ccccc3n2)cc1` [pipequaline]: 72.1%; for `CCCCCCCCCCCCCCCC(=O)NCCO` [palmidrol]: 250%.

`CN(C)CCn1nnnc1SCC1=C(C(=O)O)N2C(=O)[C@@H](NC(=O)Cc3csc(N)n3)[C@H]2SC1` [Pansporin]: the percent viability turned out to be 270%. The same measure for `CC1(C)S[C@@H]2[C@H](NC(=O)[C@H](N)c3ccc(O)cc3)C(=O)N2[C@H]1C(=O)O`: 218%; for `CN1CCC[C@@H]1Cc1c[nH]c2ccc(CCS(=O)(=O)c3ccccc3)cc12` [eletriptan]: 172%. For `CCOC(=O)/C=C/[C@H](C[C@@H]1CCNC1=O)NC(=O)[C@@H](CC(=O)[C@@H](NC(=O)c1cc(C)on1)C(C)C)Cc1ccc(F)cc1` [rupintrivir] the value was 152%. In the case of `CC1(C)S[C@@H]2[C@H](NC(=O)[C@H](NC(=O)N3CCNC3=O)c3ccccc3)C(=O)N2[C@H]1C(=O)O`, the percent viability amounted to 314%. The same measure for `NC(N)=NS(=O)(=O)c1ccc(N)cc1`: 171%; for `CCCCOC(=O)c1ccc(N)cc1`: 114%; for `C[C@]12CCC(=O)C=C1CC[C@H]1[C@@H]3CC[C@](O)(C(=O)CO)[C@@]3(C)C[C@H](O)[C@@]12F` [fludrocortisone]: 249%. The same measure for `CCOc1ccc(/N=N/c2ccc(N)cc2N)cc1` [etoxazene]: 180%; for `CC(C)(C)NC[C@H](O)COc1nsnc1N1CCOCC1` [(S)-Timolol maleate]: 243%. Take `C[C@]12C=CC(=O)C=C1C(Cl)=C[C@@H]1[C@@H]2[C@@H](O)C[C@@]2(C)[C@H]1CC[C@]2(O)C(=O)CO` [cloprednol]: the percent viability came out at 241%.

For the compound `C[N+]1(C)CCC(OC(=O)C(O)(c2ccccc2)C2CCCC2)C1` (stereo not given), the percent viability was found to be 120%. The same measure for `CC(C)NCC(O)COc1ccccc1-n1cccc1` (stereo not given) [isamoltan]: 102%; for `CC(C)(C)NCC(O)COc1ccccc1C#N` (stereo not given) [bunitrolol]: 352%. For `CO[C@H]1C[C@H](O[C@@H]2/C(C)=C\C[C@@H]3C[C@@H](C[C@]4(C=C[C@H](C)[C@@H](C(C)C)O4)O3)OC(=O)[C@@H]3C=C(C)[C@@H](O)[C@H]4OC/C(=C/C=C\[C@@H]2C)[C@]43O)O[C@@H](C)[C@H]1O[C@H]1C[C@@H](OC)[C@H](NC(C)=O)[C@H](C)O1` [eprinomectin] the value was 59.2%.

For the compound `Cc1nnc(C(C)C)n1C1C[C@H]2CC[C@@H](C1)N2CC[C@H](NC(=O)C1CCC(F)(F)CC1)c1ccccc1` (stereo in doubt) [maraviroc], the percent viability turned out to be 122%.

`CN(C)CCc1c[nH]c2ccc(Cn3cncn3)cc12`: the percent viability is 404%. For `CC1(C)S[C@@H]2[C@H](NC(=O)COc3ccccc3)C(=O)N2[C@H]1C(=O)O` [Pencillin V] the value was 234%.

Values taken from the supplement of paper PMC8256030.
